The results in this text go back to patent US20240218063A1 (HARPOON THERAPEUTICS, published 2024).

These are yes or no findings as the source states them, for the method shown. Some results given as binding are weak or reduced against the parent protein; the word gives no strength.

For the assay, the target named is cynomolgus DLL3 (cynomolgus). The assay can be described thus: BLI (Octet). (Biolayer interferometry detects binding as a change in optical thickness at a sensor tip.)

B1: anti-DLL3 trispecific protein 1H012 (other, not shown: small tags and cut ends)
chain: EVQLVESGGGLVQPGGSLTLSCVASGSTSSINAMGWYRRAPGKQRELVAGISSDGSKVYVDSVKGRFTISRDNAKNSVYLQMNSLRAEDTAVYYCYYFRTVSGSSMPYWGQGTLVTVSS
In the case of B1, the binding result is “binds”.

B2: anti-DLL3 trispecific protein 4H011 (other, not shown: small tags and cut ends)
chain: EVQLVESGGGLVQPGGSLTLSCAASGSSVSRLSMAWYRQAPGKKRELVAGISVDGSTDYIDSVKGRFTISRDNAKNSVYLQMNSLRAEDTAVYYCYAYRWTTRLTYWGQGTLVTVSS
As to B2, the binding result is “binds”.
